{
  "sequences": {"note": "Chains of the proteins cited; added tags and fusions are not shown. Lines headed by an entry give the natural chain unless they say otherwise; changes in a name come on top.", "UniProt P35346": "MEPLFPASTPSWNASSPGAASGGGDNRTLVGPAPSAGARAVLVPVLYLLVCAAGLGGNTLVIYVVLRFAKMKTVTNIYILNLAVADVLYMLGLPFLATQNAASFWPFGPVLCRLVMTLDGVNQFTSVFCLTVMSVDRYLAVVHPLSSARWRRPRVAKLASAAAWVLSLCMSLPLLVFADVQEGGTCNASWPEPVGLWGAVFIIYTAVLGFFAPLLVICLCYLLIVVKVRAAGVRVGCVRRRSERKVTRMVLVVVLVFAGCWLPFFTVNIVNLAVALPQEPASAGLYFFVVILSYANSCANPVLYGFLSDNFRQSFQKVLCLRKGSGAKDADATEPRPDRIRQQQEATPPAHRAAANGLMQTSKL"},
  "source": "patent US6774109B2",
  "about": "“Inhibition of amylin release” (Societe de Conseils de Recherches et d'Applications …, priority 1995, dated 2004)",
  "key": {"[1]": {"test_system": "rat SSTR-5", "test": "Rat SSTR-5 binding assay ([125I-Tyr11]somatostatin-14, rat olfactory bulb membranes)", "settings": "rat SSTR-2 Ki / rat SSTR-5 Ki", "protocol": "Crude membranes were prepared by homogenization of rat olfactory bulb cells (Zivic-Miller Laboratory, Inc., Zellenople, Pa.) in 20 ml of ice-cold 50 mM Tris-HCl with a POLYTRON homogenizer (setting 6, 15 sec). Buffer was added to obtain a final volume of 40 ml, and the homogenate was centrifuged in a Sorval SS-34 rotor at 39,000 g for 10 min at 0-4° C. The resulting supernatant was decanted and discarded. The pellet was rehomogenized in ice-cold buffer, diluted, and centrifuged as before. The final pellet was resuspended in the 10 mM Tris HCl and held on ice for the receptor binding assay.\nThe final assay volume was 0.3 ml. The incubations were terminated by rapid filtration through GF/C filters (pre-soaked in 0.3% polyethylenimine for 30 min) using a Brandel filtration manifold. Each tube and filter were then washed three times with 5 ml aliquots of ice-cold buffer."}, "[2]": {"target": "T1, human SSTR-5 (Homo sapiens, UniProt P35346)", "T1 construct": "expressed in transfected cells", "test": "Human SSTR-5 binding assay (transfected CHO-K1 cells)", "settings": "human SSTR-2 Ki / human SSTR-5 Ki", "from_the_text": "The human SSTR-5 cDNA clone has been described in the literature. See Panetta, et al., Mol Pharmacol., 45:417-427 (1994); O'Carroll, et al., Mol Pharmacol, 46:291-298 (1994); Yamada, et al., Biochem. Biophys. Res. Commun., 195:844 (1993) [FIG. 1 depicts the DNA sequence of the human SSTR-5.] Using a sense 5′-oligonucleotide primer, immediately preceeding the start codon (residue 30-50), and an antisense 3′-oligonucleotide primer, immediately preceeding the stop codon (residues 1180-1200), a 1170 base pair fragment comprising the full-length coding sequence of the receptor was obtained by standard Reverse-transcription PCR. See Yamada, et al., Biochem. Biophys. Res. Commun., 195:844 (1993) [FIG. 1 depicts the DNA sequence of the human SSTR-5]; Innis, et al., PCR Protocols, A Guide to Methods and Applications, Academic Press, 1990. The identity of the cDNA fragment was verified by DNA sequencing using the dideoxy-chain termination method [Sanger, et al., Proc Natl Acad Sci USA., 74:5463 (1977)] with the Sequenase kit (United States Biochemicals, Arlington Heights, Ill.).\nThe human SSTR-5 cDNA fragment was inserted into a mammalian expression vector, pCMV to generate the expression plasmid pCMV-human SSTR-5 by blunt-end ligation.\nMembranes from the stably transfected cell line were used in the rat SSTR-5 binding protocol described above."}},
  "note": "Not every detail of the peptide structures is certain; ends, links or a residue may be inferred. Non-standard residues stand in square brackets, D forms with d. Residues, ends and D or L forms follow the SMILES beside them. *: point of attachment. X1 = O=C(CN1CCN(CCO)CC1)*",
  "data": [
    {"smiles": "C[C@@H](O)[C@H](NC(=O)[C@H](Cc1ccccc1)NC(=O)[C@@H](NC(=O)[C@H](CCCCN)NC(=O)[C@@H](Cc1c[nH]c2ccccc12)NC(=O)[C@H](Cc1ccccc1)NC(=O)[C@H](Cc1ccccc1)NC(=O)[C@@H](Cc1ccccc1)NC(=O)CN1CCN(CCO)CC1)[C@@H](C)O)C(N)=O", "note": "[Analog II] (X1-[dF]FF[dW]KTFT-NH2)", "values": [
      {"measurement": "SSTR-2/SSTR-5 (ratio of Ki's)", "setting": "[1]", "result": 56.7},
      {"measurement": "SSTR-2/SSTR-5 (ratio of Ki's)", "setting": "[2]", "result": 3.22}
    ]}
  ]
}
